From paper PMC10163288
The other results are listed elsewhere or left out.

B1: il2ra_site2_2erj_normal_mot_6bd1339e93f6fdda22195c76da45ec5d_0001_000000136_0001_37_51_H_._HHH_b2_06260_0001_0000100003_0000001_0_af2pred_0001_af2pred (protein)
chain: SSSSSEDEERVEELLEQAEEAAKRDPEKALHLLFEAMEIALKSDNEELLKLVLEVSHRIAESSSS
B2: il2ra_site2_2erj_normal_mot_HHH_b1_08185_000000063_0001_41_55_H_._HHH_b2_00974_af2_0001_0000700045_0000001_0 (protein)
chain: SSSSSSDHAEEVVRELVEELGLSEEDEEKLKESAKIALSRGADERLIERYLRLAAEDISSSSSSS
B3: il2ra_site1_3nfp_sap_14_mot_HHH_b1_01540_000000276_0001_42_56_H_._HHH_b1_07396_0001_0000200020_0000001_0_0001_af2pred_0001_af2pred_1 (protein)
chain: PAEEFLERELRRLGVPPEEIEEIREVFEKLARLATKEAFRLVDRLLQLVAKGDPEEVKKLAEEIK
B4: il2ra_site1_3nfp_sap_16_mot_HHH_b2_04095_af2_000000004_0001_43_56_H_._HHH_b1_08279_af2_0001_0000300005_0000001_0_0001_af2pred_0001_af2pred_1 (protein)
chain: SSSSTEKLERAEELIKEVRRLLREGNPEEAEKLLEEMKELAEELNDPILEQLVRIAEERIKSSSS
B5: il2ra_site2_2erj_normal_mot_c2bf78bdce995293a161f7082e24b401_0001_af2_000000082_0001_17_32_H_._HHH_b2_01340_0001_0000300055_0000001_0 (protein)
chain: SSSSSLEELYELANLVLELLYRGNPEEARKVLEQLEELAEELGSDNAREIAEWLKEHIEGSSSSS
B6: il2ra_site1_2b5i_normal_mot_HHH_b2_04910_000000118_0001_1_19_H_._HHH_b1_07294_af2_0001_0000100005_0000001_0_af2pred_dldesign_0_af2pred (protein)
chain: SSSSSSKEALELFLKANEAYQAGNYEEAKKLLEEALEKAKAAGMTALVKMIESALESLSSSSSSS
B7: il2ra_site2_2erj_normal_mot_HHH_b2_05804_000000098_0001_44_58_H_._HHH_b2_05738_af2_0001_0000100013_0000001_0 (protein)
chain: SSSSDEAWERVAELLIQALELFKEGNPEEAKELLEEAREVAEEANSPFLERYVEFARRALSSSSS
B8: il2ra_site2_3nfp_sap_23_mot_HHH_b2_07840_000000026_0001_18_34_H_._HHH_b1_06020_0001_0000700062_0000001_0_0001_af2pred_0001_af2pred (protein)
chain: SDLAKERLEEAKERGTLEEYLRELLRLSAERAGNPESATLMLLIKAELLNDPEAEELVEELAEQT
B9: il2ra_site2_3nfp_normal_mot_HHH_b2_07946_000000046_0001_20_36_H_._HHH_b2_01051_0001_0000100002_0000001_0 (protein)
chain: SSSSSDEHEEEVRELLEEAKKIDDEFERFAVLADAAAIAAQANDEELLEEVLEVSARLRHSSSSS
B10: il2ra_site2_2erj_sap_22_mot_HHH_b1_07562_000000147_0001_41_55_H_._HHH_b1_01646_0001_0000600010_0000001_0_0001 (protein)
chain: DHEEAVRRALELAAKRGNLELQVRLLLLFLERTLGDPEEALERLRELLEKLGDPEAEEVLEELRR
B11: il2ra_site2_3nfp_sap_34_mot_HHH_b1_01350_af2_000000041_0001_40_53_H_._HHH_b1_03122_0001_0000500014_0000001_0_0001 (protein)
chain: SSSSDKEEIEELLKELREALERGDEELFRKILRRVAQLIFELGDHELFAELADLLAKFAHKSSSS
B12: il2ra_site2_2erj_normal_mot_HHH_b1_04294_af2_000000096_0001_1_18_H_._HHH_b1_00002_0001_0000500019_0000001_0 (protein)
chain: SSSSDLEEAVEELEELLEEGDPEKVSKVAWELLRILHEVTDPELLRKAAEVLQEALRFIEKSSSS
B13: il2ra_site1_2b5i_normal_mot_HHH_b2_05082_af2_000000040_0001_1_19_H_._HHH_b1_05573_af2_0001_0000300024_0000001_0_af2pred_dldesign_0_af2pred (protein)
chain: SSSSSSEDEIERLFKEALKLWKEGKKEEAKKLLEEALALAQAANDPKAVAELQRLLELLESSSSS
B14: il2ra_site1_1z92_sap_13_mot_HHH_b2_05238_af2_000000252_0001_38_55_H_._HHH_b1_08154_af2_0001_0000200002_0000001_1_0001_af2pred_0001_af2pred_swapped (protein)
chain: SSSSSRLERWARALVRIAAHLARLSEEQKEELERVAKEAVERGLDPEEIERLLDKVADELASSSS
B15: il2ra_site2_3nfp_sap_22_mot_HHH_b1_06064_af2_000000154_0001_41_55_H_._4a166e40179e6c064b671d174dbdc8c6_0001_af2_0001_0000600026_0000001_0_0001 (protein)
chain: SSSSSDEESEEYIRAALELLKRVKDPEVFESHVEVIRAAIEDLGDEELEEILEELEKRYNSSSSS
B16: il2ra_site1_2b5i_normal_mot_HHH_b1_02271_000000068_0001_1_16_H_._HHH_b2_07932_0001_0000300036_0000001_0_af2pred_dldesign_0_af2pred (protein)
chain: SSSSDLDAEVEKGLEEAERLKKEGKYKEAFEKLEKLYKKVSAADDEEREEKIEKKYKELSSSSSS
B17: il2ra_site2_3nfp_normal_mot_HHH_b1_06797_000000164_0001_24_40_H_._HHH_b2_04507_0001_0000200012_0000001_0 (protein)
chain: SSSSDKQEEYLRVVLALVREAEEAGDEFALRSSLEFALLLAEALNDEEVEKELRELLEELSSSSS
B18: il2ra_site2_2erj_sap_21_mot_HHH_b2_00938_af2_000000099_0001_43_55_H_._HHH_b1_03152_af2_0001_0000100003_0000001_0_0001 (protein)
chain: SSSSLHEAFEIAVEAAAKISRLHREGNDEEAKRVFEEARERLEELGTENAREHLEHLFKALSSSS
B19: il2ra_site2_3nfp_normal_mot_HHH_b2_06150_000000217_0001_39_53_H_._HHH_b1_03322_0001_0000100005_0000001_0 (protein)
chain: SSSSDIEERIEELLEEAKELIENGDPERAQEVLQEATHLAYEIRNSELFMRVAELLYLLRSSSSS
B20: il2ra_site2_3nfp_normal_mot_HHH_b2_07946_000000046_0001_20_36_H_._de103a6a2759fb2eb67fe2c7ae4a7c2b_0001_0001_0000200009_0000001_0_af2pred_0001_af2pred (protein)
chain: SRRLEALKILEELGDPEAAFLLYALVAEVLHEGDPELQRLLEEVLELVEEGDPEEAKRLLEEIDN
B21: il2ra_site2_3nfp_normal_mot_HHH_b2_05281_000000198_0001_39_56_H_._HHH_b1_01561_0001_0000300023_0000001_0 (protein)
chain: SSSSDVEERVEELLEEIRRLIEEGDEEKARRLLREVTELAYENRDSRLFFLVAELAFALFSSSSS
B22: il2ra_site2_3nfp_normal_mot_HHH_b2_06150_000000217_0001_39_53_H_._HHH_b2_08021_af2_0001_0000300025_0000001_0 (protein)
chain: SSSSSSDEEEVEELLEEAKKIEDEREREEVLARASEIAYEARNSELFYEIAEVLFELASSSSSSS
B23: il2ra_site2_3nfp_sap_13_mot_HHH_b2_01406_000000272_0001_41_55_H_._HHH_b2_06395_0002_0000100003_0000001_0_0001 (protein)
chain: SSSSDKSEEYLRVALALVREAEEEGDEEVLRSHIEAALAAAEDQGDEETFEELKKLLEELSSSSS
B24: il2ra_site2_2erj_normal_mot_HHH_b2_05264_af2_000000057_0001_44_57_H_._HHH_b2_03657_af2_0001_0000300015_0000001_1 (protein)
chain: SSSSSDKEYWEKVAELTAEAAHVEDEERVEELLREAEELAEEANNEFLKRYIEYARRAFSSSSSS

What follows are binders tested against il2ra, P01589 (assay: yeast display titration).

Apparent Kd, inactive:
B1 no binding seen
B2 no binding seen
B3 no binding seen
B4 no binding seen
B5 no binding seen
B6 no binding seen
B7 no binding seen
B8 no binding seen
B9 no binding seen
B10 no binding seen
B11 no binding seen
B12 no binding seen
B13 no binding seen
B14 no binding seen
B15 no binding seen
B16 no binding seen
B17 no binding seen
B18 no binding seen
B19 no binding seen
B20 no binding seen
B21 no binding seen
B22 no binding seen
B23 no binding seen
B24 no binding seen

A section from the list above, as a working copy:
Apparent Kd, inactive:
B7 no binding seen
B8 no binding seen
